The supplement of paper PMC12823440, “Inhibitors supercharge kinase turnover through native proteolytic circuits” (Nature, 2025)
The other results are listed elsewhere or left out. The calls rarely recur for the same compound in another form.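 In K562 cells expressing nanoluciferase-fused kinases, luminescence was recorded at 4 h intervals between 2 and 18 h, normalized as percent of control with DMSO at 100% and a positive control at 0%. A significant (2 sigma) signal drop marks a time point as decreased. The authors' rule for a hit is not shown and takes in more than the number of time points.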

By UniProt entry, the sequences of proteins in these tests, tags left out. Where a name states a change or a piece, a line headed by the entry shows the natural chain unless it says otherwise.
UniProt P50613: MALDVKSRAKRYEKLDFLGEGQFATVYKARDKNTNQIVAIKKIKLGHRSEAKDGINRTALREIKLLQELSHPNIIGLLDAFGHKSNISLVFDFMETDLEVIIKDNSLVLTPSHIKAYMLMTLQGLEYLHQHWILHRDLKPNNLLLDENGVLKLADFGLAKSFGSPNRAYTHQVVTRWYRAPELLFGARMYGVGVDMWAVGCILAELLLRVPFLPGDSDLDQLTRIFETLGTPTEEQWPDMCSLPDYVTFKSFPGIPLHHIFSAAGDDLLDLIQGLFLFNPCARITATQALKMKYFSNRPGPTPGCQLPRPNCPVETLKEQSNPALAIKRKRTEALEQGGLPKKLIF
UniProt P50750, whole entry: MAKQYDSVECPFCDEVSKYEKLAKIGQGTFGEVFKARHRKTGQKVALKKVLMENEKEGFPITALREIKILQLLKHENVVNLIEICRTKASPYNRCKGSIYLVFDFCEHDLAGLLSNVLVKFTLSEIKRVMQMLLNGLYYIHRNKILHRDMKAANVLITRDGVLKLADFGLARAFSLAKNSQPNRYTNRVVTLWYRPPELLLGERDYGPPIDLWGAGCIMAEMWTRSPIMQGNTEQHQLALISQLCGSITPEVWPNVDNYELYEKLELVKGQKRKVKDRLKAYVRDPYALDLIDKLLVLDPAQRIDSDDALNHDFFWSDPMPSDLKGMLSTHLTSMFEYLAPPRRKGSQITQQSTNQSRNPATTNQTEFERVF
UniProt O96017, whole entry: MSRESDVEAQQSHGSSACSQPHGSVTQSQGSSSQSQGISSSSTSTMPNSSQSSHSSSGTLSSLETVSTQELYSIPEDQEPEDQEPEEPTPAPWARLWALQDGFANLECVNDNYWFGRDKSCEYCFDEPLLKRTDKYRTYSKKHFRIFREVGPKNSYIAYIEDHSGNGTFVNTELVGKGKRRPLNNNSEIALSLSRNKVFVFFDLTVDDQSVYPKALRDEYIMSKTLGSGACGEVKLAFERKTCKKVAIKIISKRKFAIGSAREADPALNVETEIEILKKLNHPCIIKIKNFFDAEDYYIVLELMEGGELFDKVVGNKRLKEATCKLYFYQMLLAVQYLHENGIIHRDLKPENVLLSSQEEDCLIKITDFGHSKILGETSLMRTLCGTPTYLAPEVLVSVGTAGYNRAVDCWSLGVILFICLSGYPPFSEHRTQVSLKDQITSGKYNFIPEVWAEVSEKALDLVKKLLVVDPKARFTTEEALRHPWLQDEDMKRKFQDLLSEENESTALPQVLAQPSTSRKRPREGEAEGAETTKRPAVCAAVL
UniProt P07333, whole entry: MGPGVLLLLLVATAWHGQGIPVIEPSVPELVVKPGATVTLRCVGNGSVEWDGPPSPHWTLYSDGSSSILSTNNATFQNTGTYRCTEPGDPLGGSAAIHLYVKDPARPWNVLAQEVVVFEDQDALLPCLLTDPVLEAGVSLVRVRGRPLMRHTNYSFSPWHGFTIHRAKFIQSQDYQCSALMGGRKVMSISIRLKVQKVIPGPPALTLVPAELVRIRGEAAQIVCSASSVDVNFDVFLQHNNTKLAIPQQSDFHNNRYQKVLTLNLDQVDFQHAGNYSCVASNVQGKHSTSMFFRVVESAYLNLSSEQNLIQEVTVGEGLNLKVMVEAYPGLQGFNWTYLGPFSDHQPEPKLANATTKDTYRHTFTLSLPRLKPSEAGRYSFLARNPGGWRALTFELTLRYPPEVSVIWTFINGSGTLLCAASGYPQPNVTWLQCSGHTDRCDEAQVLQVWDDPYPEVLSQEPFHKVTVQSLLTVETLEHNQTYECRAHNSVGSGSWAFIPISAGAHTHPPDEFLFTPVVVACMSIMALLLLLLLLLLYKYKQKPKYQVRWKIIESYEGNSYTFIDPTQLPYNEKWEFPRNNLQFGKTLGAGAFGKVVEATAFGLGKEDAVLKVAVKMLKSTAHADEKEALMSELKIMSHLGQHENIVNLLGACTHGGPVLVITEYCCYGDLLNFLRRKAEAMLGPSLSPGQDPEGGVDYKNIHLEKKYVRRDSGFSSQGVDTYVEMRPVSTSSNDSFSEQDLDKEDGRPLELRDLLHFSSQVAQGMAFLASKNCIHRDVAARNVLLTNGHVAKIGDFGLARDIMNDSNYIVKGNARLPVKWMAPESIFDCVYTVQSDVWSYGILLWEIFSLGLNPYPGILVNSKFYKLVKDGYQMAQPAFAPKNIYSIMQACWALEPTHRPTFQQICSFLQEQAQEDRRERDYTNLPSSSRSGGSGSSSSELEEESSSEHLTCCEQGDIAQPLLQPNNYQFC
UniProt P41240: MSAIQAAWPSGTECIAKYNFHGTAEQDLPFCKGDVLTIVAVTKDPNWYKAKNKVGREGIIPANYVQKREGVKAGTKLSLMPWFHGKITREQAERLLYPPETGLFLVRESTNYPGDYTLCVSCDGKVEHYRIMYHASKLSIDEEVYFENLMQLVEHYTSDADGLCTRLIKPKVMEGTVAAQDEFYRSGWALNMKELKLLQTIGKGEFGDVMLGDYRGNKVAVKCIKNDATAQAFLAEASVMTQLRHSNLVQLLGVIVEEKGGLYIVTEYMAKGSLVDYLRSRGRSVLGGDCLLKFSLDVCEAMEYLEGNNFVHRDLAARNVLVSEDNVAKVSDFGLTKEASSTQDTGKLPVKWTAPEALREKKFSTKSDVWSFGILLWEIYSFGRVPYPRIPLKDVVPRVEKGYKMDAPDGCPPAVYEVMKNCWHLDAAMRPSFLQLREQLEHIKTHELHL
UniProt P48729: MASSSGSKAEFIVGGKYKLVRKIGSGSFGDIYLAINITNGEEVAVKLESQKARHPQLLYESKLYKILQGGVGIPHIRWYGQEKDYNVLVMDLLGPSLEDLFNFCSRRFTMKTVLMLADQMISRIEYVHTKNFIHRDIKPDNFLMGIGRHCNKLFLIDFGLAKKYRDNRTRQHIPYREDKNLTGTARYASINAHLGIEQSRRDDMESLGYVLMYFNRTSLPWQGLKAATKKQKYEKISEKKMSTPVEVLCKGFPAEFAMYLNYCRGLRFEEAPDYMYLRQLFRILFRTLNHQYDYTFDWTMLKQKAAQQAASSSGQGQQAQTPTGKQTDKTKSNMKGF
UniProt P48730: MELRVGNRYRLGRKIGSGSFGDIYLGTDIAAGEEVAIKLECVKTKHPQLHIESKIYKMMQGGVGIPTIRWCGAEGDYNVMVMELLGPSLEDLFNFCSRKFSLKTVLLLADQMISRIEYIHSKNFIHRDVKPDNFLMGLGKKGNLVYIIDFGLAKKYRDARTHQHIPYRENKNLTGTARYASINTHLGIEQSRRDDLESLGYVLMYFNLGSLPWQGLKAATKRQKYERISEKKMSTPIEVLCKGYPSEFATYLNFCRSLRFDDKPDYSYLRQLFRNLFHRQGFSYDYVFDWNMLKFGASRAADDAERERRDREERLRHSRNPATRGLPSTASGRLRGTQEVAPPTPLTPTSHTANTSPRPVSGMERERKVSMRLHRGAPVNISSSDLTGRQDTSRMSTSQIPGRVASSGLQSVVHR
UniProt Q08345: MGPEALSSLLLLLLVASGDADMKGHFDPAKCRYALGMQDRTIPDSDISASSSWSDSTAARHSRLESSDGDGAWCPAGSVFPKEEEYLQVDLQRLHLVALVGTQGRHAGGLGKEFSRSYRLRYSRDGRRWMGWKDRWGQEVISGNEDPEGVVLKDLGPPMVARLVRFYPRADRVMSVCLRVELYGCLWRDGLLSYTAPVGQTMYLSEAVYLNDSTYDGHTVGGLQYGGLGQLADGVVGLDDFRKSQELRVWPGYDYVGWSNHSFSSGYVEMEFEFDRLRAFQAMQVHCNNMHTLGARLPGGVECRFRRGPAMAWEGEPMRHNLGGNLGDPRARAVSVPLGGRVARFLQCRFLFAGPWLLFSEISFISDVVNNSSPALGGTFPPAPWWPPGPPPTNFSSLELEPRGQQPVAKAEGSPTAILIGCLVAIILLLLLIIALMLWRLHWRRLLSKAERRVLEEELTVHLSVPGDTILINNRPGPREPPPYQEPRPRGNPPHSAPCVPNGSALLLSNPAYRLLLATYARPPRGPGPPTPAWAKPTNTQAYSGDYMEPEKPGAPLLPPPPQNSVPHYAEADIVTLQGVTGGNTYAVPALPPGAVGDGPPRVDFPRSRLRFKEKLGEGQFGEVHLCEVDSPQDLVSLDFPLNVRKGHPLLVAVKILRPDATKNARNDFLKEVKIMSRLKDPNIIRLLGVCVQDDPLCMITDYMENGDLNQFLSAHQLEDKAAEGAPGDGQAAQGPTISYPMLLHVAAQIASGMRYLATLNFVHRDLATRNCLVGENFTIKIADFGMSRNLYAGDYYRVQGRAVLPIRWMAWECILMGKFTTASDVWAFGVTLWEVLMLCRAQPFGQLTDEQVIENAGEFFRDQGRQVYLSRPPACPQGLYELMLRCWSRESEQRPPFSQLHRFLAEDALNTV
UniProt Q9Y463, whole entry, looked up: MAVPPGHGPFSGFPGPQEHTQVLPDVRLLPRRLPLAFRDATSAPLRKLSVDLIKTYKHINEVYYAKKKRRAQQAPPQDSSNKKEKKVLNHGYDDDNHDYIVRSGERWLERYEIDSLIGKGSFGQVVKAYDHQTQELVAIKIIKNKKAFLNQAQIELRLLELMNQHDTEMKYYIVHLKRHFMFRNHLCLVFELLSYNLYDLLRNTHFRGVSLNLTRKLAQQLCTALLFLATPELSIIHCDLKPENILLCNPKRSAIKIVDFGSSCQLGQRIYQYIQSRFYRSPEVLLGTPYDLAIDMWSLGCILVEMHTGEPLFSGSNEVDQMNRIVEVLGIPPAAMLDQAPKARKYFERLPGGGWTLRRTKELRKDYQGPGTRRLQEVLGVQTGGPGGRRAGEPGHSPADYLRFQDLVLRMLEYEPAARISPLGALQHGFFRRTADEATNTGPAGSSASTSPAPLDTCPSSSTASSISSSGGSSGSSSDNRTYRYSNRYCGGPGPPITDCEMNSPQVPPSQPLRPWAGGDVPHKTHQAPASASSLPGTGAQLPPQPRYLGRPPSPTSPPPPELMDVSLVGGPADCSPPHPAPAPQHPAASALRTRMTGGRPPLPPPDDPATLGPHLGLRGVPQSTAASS
UniProt Q92630: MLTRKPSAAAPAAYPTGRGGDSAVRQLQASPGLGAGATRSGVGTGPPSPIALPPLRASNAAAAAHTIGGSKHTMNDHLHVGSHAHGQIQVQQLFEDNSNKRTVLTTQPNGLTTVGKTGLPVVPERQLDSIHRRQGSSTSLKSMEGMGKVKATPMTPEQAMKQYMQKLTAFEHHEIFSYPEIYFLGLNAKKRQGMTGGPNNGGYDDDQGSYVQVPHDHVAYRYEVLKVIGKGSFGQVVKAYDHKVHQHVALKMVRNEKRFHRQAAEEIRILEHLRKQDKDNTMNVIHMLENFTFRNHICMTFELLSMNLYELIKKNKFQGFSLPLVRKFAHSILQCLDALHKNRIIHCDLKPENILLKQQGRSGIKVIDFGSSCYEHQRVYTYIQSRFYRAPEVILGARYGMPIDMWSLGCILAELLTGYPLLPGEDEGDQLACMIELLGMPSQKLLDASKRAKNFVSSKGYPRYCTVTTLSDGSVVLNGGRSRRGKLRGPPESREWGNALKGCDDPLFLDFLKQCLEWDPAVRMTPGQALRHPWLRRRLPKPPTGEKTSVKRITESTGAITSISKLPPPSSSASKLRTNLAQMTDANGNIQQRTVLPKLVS

How the values were obtained:
Assay in all cases: kinase-Nluc reporter destabilization hit call (1 = scored as downregulated) (binary); higher = compound decreases kinase abundance
Conditions in all cases: K562; 2-18 h
[1] = molecular target: CDK7 (UniProt P50613)
[2] = molecular target: CDK9 (UniProt P50750)
[3] = molecular target: CHEK2 (UniProt O96017)
[4] = molecular target: CSF1R (UniProt P07333)
[5] = molecular target: CSK (UniProt P41240)
[6] = molecular target: CSNK1A1 (UniProt P48729)
[7] = molecular target: CSNK1D (UniProt P48730)
[8] = molecular target: DDR1 (UniProt Q08345)
[9] = molecular target: DYRK1B (UniProt Q9Y463)
[10] = molecular target: DYRK2 (UniProt Q92630)

Measured: kinase-Nluc reporter destabilization hit call

C[C@@H]1O[C@@H](Oc2cc(O)c3c(=O)c(O[C@@H]4O[C@@H](C)[C@H](O)[C@@H](O)[C@H]4O)c(-c4ccc(O)cc4)oc3c2)[C@H](O)[C@H](O)[C@H]1O [Kaempferitrin] (10 µM)
inactive: [1] 0 | [2] 0 | [3] 0 | [4] 0 | [5] 0 | [6] 0 | [7] 0 | [8] 0 | [9] 0 | [10] 0

CO[C@H]1CC[C@H](N2C(=O)CNc3ncc(-c4ccc(C(C)(C)O)nc4)nc32)CC1 (2.5 µM)
inactive: [1] 0 | [2] 0 | [3] 0 | [4] 0 | [5] 0 | [6] 0 | [7] 0 | [8] 0 | [9] 0 | [10] 0

N#Cc1ccc(-c2cnc3[nH]cc(NC(=O)c4cccnc4)c3c2)cc1 (10 µM)
inactive: [1] 0 | [2] 0 | [3] 0 | [4] 0 | [5] 0 | [6] 0 | [7] 0 | [8] 0 | [9] 0 | [10] 0

CC1CN(CC2CCN(Cc3ccccc3)CC2)C(=O)N(c2cccc(C(=N)N)c2)C1 (stereo not given) (10 µM)
inactive: [1] 0 | [2] 0 | [3] 0 | [4] 0 | [5] 0 | [6] 0 | [7] 0 | [8] 0 | [9] 0 | [10] 0

C=CC(=O)N1CCC[C@@H](n2nc(-c3ccc(Oc4ccccc4)cc3)c3c(N)n[nH]c(=O)c32)C1 [BTK inhibitor 17] (10 µM)
inactive: [1] 0 | [2] 0 | [3] 0 | [4] 0 | [5] 0 | [6] 0 | [7] 0 | [8] 0 | [9] 0 | [10] 0

Cc1ccc(C)c(OCCn2cc(C(=O)O)c3ccccc32)c1 (10 µM)
inactive: [1] 0 | [2] 0 | [3] 0 | [4] 0 | [5] 0 | [6] 0 | [7] 0 | [8] 0 | [9] 0 | [10] 0
